Assay results from patent US20250057993A1, “LABELED INHIBITORS OF PROSTATE SPECIFIC MEMBRANE ANTIGEN (PSMA), THEIR USE AS IMAGING AGENTS AND PHARMACEUTICAL AGENTS FOR THE TREATMENT OF PSMA-EXPRESSING CANCERS” (Universität Heidelberg, priority 2018, published 2025).
Some of these results come from one statement about several compounds together.

Test: Serum stability of 203Pb labeled compounds (radio-HPLC)
Type: in vitro ADME, human
Settings: 37° C.

| Structure (SMILES) | stable in human serum for at least |
| --- | --- |
| NC(=O)CN1CCN(CC(N)=O)CCN(CC(=O)N[C@@H](Cc2ccc3ccccc3c2)C(=O)NCCCC[C@H](NC(=O)N[C@@H](CCC(=O)O)C(=O)O)C(=O)O)CCN(CC(N)=O)CC1 [CA011] | at least 72 h |
| NC(=O)CN1CCN(CC(N)=O)CCN(CC(=O)NCC2CCC(C(=O)NC(Cc3ccc4ccccc4c3)C(=O)NCCCCC(NC(=O)NC(CCC(=O)O)C(=O)O)C(=O)O)CC2)CCN(CC(N)=O)CC1 (centres unmarked) [CA012] | at least 72 h |
